Experimental data taken from patent US6890954B1, “Uses of 2-bromopalmitate in the treatment of autoimmune disease” (priority 1999, dated 2005).
At least one compound was matched to its structure with a doubt left.

Chains of the proteins cited; added tags and fusions are not shown.
UniProt P06241, whole entry, species assumed: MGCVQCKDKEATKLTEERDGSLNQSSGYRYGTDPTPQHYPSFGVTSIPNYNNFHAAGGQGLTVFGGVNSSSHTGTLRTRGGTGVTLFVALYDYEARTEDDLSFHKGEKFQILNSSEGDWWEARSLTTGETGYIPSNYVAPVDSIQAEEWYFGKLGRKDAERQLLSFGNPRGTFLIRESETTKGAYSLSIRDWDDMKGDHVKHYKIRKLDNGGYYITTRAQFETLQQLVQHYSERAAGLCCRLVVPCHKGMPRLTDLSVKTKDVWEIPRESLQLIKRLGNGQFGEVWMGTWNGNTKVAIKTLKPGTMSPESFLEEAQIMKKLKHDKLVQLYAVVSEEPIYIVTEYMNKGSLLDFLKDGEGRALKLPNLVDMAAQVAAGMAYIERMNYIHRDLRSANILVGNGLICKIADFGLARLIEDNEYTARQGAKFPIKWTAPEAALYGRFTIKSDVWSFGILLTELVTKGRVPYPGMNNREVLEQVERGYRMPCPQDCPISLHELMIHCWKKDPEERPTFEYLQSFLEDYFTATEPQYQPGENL

Columns and labels:
[1] = target: T1, Fyn (Homo sapiens, UniProt P06241); experiment: Fyn fatty acylation (IC13/IC16 incorporation) in transfected COS-1 cells; format: cell-based
T1 construct: expressed in transfected cells; host or cells: COS-1
Experimental: The syntheses of 13-[^125I]-iodotridecanoic acid (IC13)or 16-[^125I]-iodohexanoic acid (IC16) were carried out as described previously (39). Cell labeling was carried out as described (12,13) with modifications. Briefly, each 60 mm plate of Fyn transfected COS-1 cells was incubated O/N in DMEM containing 2.5% FBS, 0.5% defatted BSA (Sigma) with or without 100 μM 2-bromopalmitate or 50 μM polyunsaturated fatty acid. Prior to labeling, the cells were incubated for 1 hr with 1 ml of DMEM containing 2% dialyzed FBS, then labeled for 4 hours with 25-50 μCi IC13 or IC16 in DMEM containing 2% dialyzed FBS, 0.5% defatted BSA with or without 2-bromopalmitate or polyunsaturated fatty acid. […] Gels were dried between cellophane and analyzed by phosphorimaging after 12-36 hours exposure. […]
A number of palmitic acid analogs were screened for their ability to inhibit Fyn palmitoylation. […] Cells were lysed, immunoprecipitated with anti-Fyn antibody, and analyzed by SDS-PAGE and phosphorimaging. […]
To test this hypothesis, Fyn transfected COS-1 cells were incubated O/N with or without 50 μM arachidonic acid (20:4) or eicosapentaenoic acid (20:5), then labeled with IC13 or IC16. Total protein levels were monitored by immunoblotting aliquots of each sample with anti-Fyn antibody (FIG. 8A, lower panel).

[2] = system: Fyn/Lck; conditions: previously reported (37); cited from earlier work

CC/C=C\C/C=C\C/C=C\C/C=C\C/C=C\C/C=C\CCC(=O)O [docosahexaenoic acid]
potency at inhibiting Fyn palmitoylation, less potent than 20:4 and 20:5 ([1]; COS-1, data not shown): 10-20% | relative activity in inhibiting T cell signaling and displacing Fyn and Lck from DRMs [2]: less active than 20:4 and 20:5

CC/C=C\C/C=C\C/C=C\C/C=C\C/C=C\CCCC(=O)O [eicosapentaenoic acid]
effect on Fyn myristoylation (IC13 incorporation) ([1]; COS-1, 50 μM PUFA overnight): almost no effect | relative activity in inhibiting T cell signaling and displacing Fyn and Lck from DRMs [2]: slightly more potent than 20:4
